Experiment [1] can be described thus: qHTS Assay for Inhibitors of PDE-IV (AID 607). The following applies: HEK293 ACTOne CNG channel cells, membrane potential fluorescence; measured here: parental cell counter-screen. The procedure, abridged: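 ACTOne HEK293 cells carry a modified cAMP-gated CNG channel and express endogenous PDE4; plated 1000 cells/well, compounds up to 22.9 uM final. Membrane-potential dye fluorescence (ex 535/em 590) was read; parental cells received 10 uM forskolin + 100 uM RO 20-1724.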
For orientation: Quantitative high-throughput screening tests each substance at several concentrations.

Experiment [2] is described as follows: qHTS Assay for Lipid Storage Modulators (AID 1519). The conditions noted are these: Drosophila S3 cells, BODIPY lipid droplet/cell ratio, laser cytometry, cells loaded with oleic acid. The procedure, abridged: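 Cells seeded at 5,000 per well were treated with compounds over a concentration series and loaded with oleic acid (400 uM, as added). Lipid droplet fluorescence (488 nm excitation, 500-530 nm channel) was read by laser-scanning cytometry and normalized to 20 uM Triacsin C.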

Experiment [3] can be described thus: NCATS anti-infectives library activity on the primary C. elegans qHTS viability assay (AID 1745855). The following applies: C. elegans worm area imaging, day 7, measured here: worm number. In a few lines:
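Viability read-out is GFP fluorescence of PE254-GFP-FLuc C. elegans, measured by laser cytometry (488 nm) at day 0, 3 and 7. Ten L1 worms per well were incubated 7 days at 21 °C with compounds and bacterial capsules in S medium.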

Experiment [4] can be described thus: S16 Schwann cell PMP22 intronic element beta-lactamase assay (AID 624044). The conditions noted are these: S16 rat Schwann cells, PMP22 element beta-lactamase FRET, 24 h; measured here: 460 nm blue channel. The procedure, abridged: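 Rat S16 Schwann cells with beta-Lac driven by a PMP22 intronic element, compound-treated 24 h at 37 °C. LiveBLAzer FRET B/G read: 460 nm normalized to potassium clavulanate vs DMSO; 535 nm FRET as viability; concentration-effect curves classified.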

[5] abbreviates: measured here: cell count channel max response.
Setting [6] is: measured here: cell number channel AC50.
The mark [7] stands for this setting: measured here: lipid (BODIPY) channel AC50.
The mark [8] stands for this setting: measured here: lipid channel max response.

Our source for the AC50 and max response values is PubChem BioAssay (NCATS).

Some of the results follow. Further columns of the screen follow, without active or inactive calls. The list favours compounds with an active or inconclusive main result. Words in brackets tell the shape of the fitted curve; partial curves, single points and poor fits give uncertain potencies.

For orientation: AC50 means the concentration giving half of the maximal activity seen. On to `COc1ccccc1CNc1ncnc2ccc(-c3ccc4c(c3)OCO4)cc12`, for which the half-maximal activity concentration (AC50) in experiment [1] was 12.6 µM [rising, single point]; in experiment [2] (setting [6]) it was 0.0631 µM [rising, full curve, poor fit]; in experiment [2] (setting [7]), 0.251 µM [rising, full curve, poor fit]. For the same compound, the max response worked out at 18.5% in experiment [2] (setting [5]) and 20.7% in experiment [2] (setting [8]).
Consider `COc1ccccc1N1CCN(C[C@@H](O)COc2cccc3ccccc23)CC1`, for which the AC50 is 7.94 µM [rising, partial curve, poor fit] in experiment [1]; 14.1 µM [rising, partial curve] in experiment [2] (setting [6]); 15.8 µM [rising, partial curve] in experiment [2] (setting [7]). The max response in experiment [2] (setting [5]) came out at 97.4%; in experiment [2] (setting [8]), 127%.
Regarding `Nc1cc(=O)[nH]c(N)n1`, the AC50 was 0.0794 µM [falling, full curve, poor fit] in experiment [1]; 2.82 µM [falling, full curve, poor fit] in experiment [2] (setting [6]); 3.16 µM [falling, full curve, poor fit] in experiment [2] (setting [7]). For the same compound, the max response was -25.2% in experiment [2] (setting [5]) and -23.9% in experiment [2] (setting [8]).
In the case of `COc1ccccc1-c1nc(N(C)Cc2ccco2)c2ccccc2n1`, the AC50 in experiment [1] was 10 µM [rising, single point]; in experiment [2] (setting [6]), 0.501 µM [rising, full curve, poor fit]; in experiment [2] (setting [7]) it was 0.562 µM [rising, full curve, poor fit]. For the same compound, the max response was found to be 23.6% in experiment [2] (setting [5]) and 31.2% in experiment [2] (setting [8]).
As for `COc1ccccc1CNc1ncncc1-c1ccc2c(c1)OCO2`, the AC50 is 12.6 µM [rising, single point] in experiment [1]; 0.00501 µM [rising, full curve, poor fit] in experiment [2] (setting [6]); 0.00562 µM [rising, full curve, poor fit] in experiment [2] (setting [7]). The max response was 23.1% in experiment [2] (setting [5]) and 29.7% in experiment [2] (setting [8]).
For `CN(C)Cc1ccccc1-c1nccc(N(C)Cc2ccco2)n1`, the AC50 in experiment [1] was 7.94 µM [rising, partial curve]; in experiment [2] (setting [6]), 25.1 µM [rising, single point]; in experiment [2] (setting [7]) it was 31.6 µM [rising, single point]. For the same compound, the max response in experiment [2] (setting [5]) came out at 37.8%; in experiment [2] (setting [8]), 42.9%.
As to `COc1ccccc1CNc1ccnc(-c2ccccc2OC)n1`, the AC50 in experiment [1] is 12.6 µM [rising, single point]; in experiment [2] (setting [6]), 1.78 µM [rising, full curve]; in experiment [2] (setting [7]), 1.58 µM [rising, full curve]. For the same compound, the results for the max response in experiment [2] (setting [5]) and in experiment [2] (setting [8]) were 9.86% and 9.38%, respectively.
Consider `N#Cc1ccc(CN2CCC3(CC2)CCN(C(=O)c2csnn2)CC3)cc1`, for which the AC50 in experiment [1] was 0.794 µM [rising, single point]; in experiment [2] (setting [6]), 3.55 µM [rising, single point]; in experiment [2] (setting [7]), 3.55 µM [rising, partial curve]. Further, the results for the max response in experiment [2] (setting [5]) and in experiment [2] (setting [8]) were 11.8% and 17.6%, respectively.
`COc1ccc(C(=O)N2CCC[C@@]3(CCN(Cc4ccccc4OC)C3)C2)cc1`: the AC50 is 12.6 µM [rising, single point] in experiment [1]; 2 µM [rising, full curve, poor fit] in experiment [2] (setting [6]); 1.78 µM [rising, full curve] in experiment [2] (setting [7]). Besides, the max response was determined as 25.4% in experiment [2] (setting [5]) and 32.1% in experiment [2] (setting [8]).
Consider `COc1cc2cc3c4c(cc(OC)c(OC)c4c2cc1OC)CCN3C`, for which the AC50 is 15.8 µM [falling, partial curve, poor fit] in experiment [1]; 0.501 µM [rising, full curve] in experiment [2] (setting [6]); 0.398 µM [rising, full curve, poor fit] in experiment [2] (setting [7]). Further, the max response worked out at 75.8% in experiment [2] (setting [5]) and 95.7% in experiment [2] (setting [8]).
Regarding `Cn1cccc1C(=O)N1CCC2(CCCN(C(=O)Nc3cccc(C#N)c3)C2)CC1`, the concentration at half-maximal activity (AC50) was 0.631 µM [rising, single point] in experiment [1]; 0.355 µM [rising, partial curve, poor fit] in experiment [2] (setting [6]); 0.0282 µM [rising, full curve, poor fit] in experiment [2] (setting [7]). Further, the max response in experiment [2] (setting [5]) amounted to 9.5%; in experiment [2] (setting [8]) it was 15.5%.
With `c1ccc(CNc2ncnc3ccc(-c4ccc5c(c4)OCO5)cc23)cc1`, the half-maximal activity concentration (AC50) in experiment [1] is 12.6 µM [rising, partial curve]; in experiment [2] (setting [6]), 3.55 µM [rising, partial curve, poor fit]; in experiment [2] (setting [7]), 0.794 µM [rising, full curve, poor fit]. In addition, the max response in experiment [2] (setting [5]) is 50.9%; in experiment [2] (setting [8]), 62.5%.
For `Cc1c(-c2ccccc2)oc2cc(O)ccc2c1=O`, the concentration at half-maximal activity (AC50) in experiment [1] is 12.6 µM [rising, single point]; in experiment [2] (setting [6]), 15.8 µM [rising, partial curve, poor fit]; in experiment [2] (setting [7]) it was 28.2 µM [rising, partial curve, poor fit]. The max response in experiment [2] (setting [5]) was determined as 57.2%; in experiment [2] (setting [8]) it was 73.8%.
Turning to `COc1ccccc1-c1oc2ccccc2c(=O)c1OC`, the AC50 is 15.8 µM [rising, partial curve, poor fit] in experiment [1]; 10 µM [rising, partial curve] in experiment [2] (setting [6]); 12.6 µM [rising, partial curve] in experiment [2] (setting [7]). The max response in experiment [2] (setting [5]) was 129%; in experiment [2] (setting [8]), 172%.
Regarding `N[C@H]1CONC1=O`, the results for the max response in experiment [2] (setting [5]) and in experiment [2] (setting [8]) were 44.4% and 42.9%, respectively. The concentration at half-maximal activity (AC50) was 39.8 µM [rising, single point] in experiment [2] (setting [6]) and 0.501 µM [falling, full curve, poor fit] in experiment [3].
For `CC[C@]1([C@H]2O[C@@H]([C@@H]3O[C@](O)(CO)[C@@H](C)C[C@H]3C)C[C@H]2C)CC[C@@H]([C@]2(C)CC[C@@]3(C[C@@H](O)[C@@H](C)[C@@H]([C@H](C)[C@H](OC)[C@H](C)C(=O)O)O3)O2)O1`, the figures for the max response in experiment [2] (setting [5]) and in experiment [2] (setting [8]) were -26.6% and -84.1%, respectively. The half-maximal activity concentration (AC50) in experiment [2] (setting [6]) is 0.708 µM [falling, full curve, poor fit]; in experiment [2] (setting [7]) it was 5.62 µM [falling, partial curve, poor fit]; in experiment [4], 0.501 µM [falling, full curve].
